# Experimental data as given in the RNAGym collection of RNA variant scans (doi:10.1126/science.aae0568).
# Variants at the floor of the assay are shown more often than the library holds them.
# B1: tRNA (parent)
# chain: GUUCCGUUGGCGUAAUGGUAACGCGUCUCCCUCCUAAGGAGAAGACUGCGGGUUCGAGUCCCGUACGGAACG
# Variants of: B1
# Assay: yeast fitness relative to wild type (ratio to wild type); higher = fitter; tRNA-Arg(CCU), competitive growth, 37 C, YPD
# Method in brief: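 The tRNA-Arg(CCU) gene variants were made by chemical synthesis with a 3% per-site mutation rate at 69 sites and inserted at the native genomic locus of Saccharomyces cerevisiae. After pooling, the strains were competed in YPD at 37°C for 24 hours in six parallel replicates. Gene amplicons from the start population and each end population were read by 100-nucleotide paired-end sequencing, and Darwinian fitness relative to wild type was taken from genotype frequency changes. Genotypes needed ≥ 100 starting reads, and estimates < 0.5 were set to 0.5.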
row,Variant,yeast fitness
1,C34G U35G G39A A65G,≤ 0.5
2,C11G A15U A57C,≤ 0.5
3,U7A G10C C30G A36U U59A,≤ 0.5
4,G12A C29G C34G,≤ 0.5
5,U8A A14U A15G U32C A57U,0.599
6,U3A C11U U13C C31A U59A,≤ 0.5
7,G6C A20U C30G C66U,≤ 0.5
8,C5G A21U G38A A45C,≤ 0.5
9,C11G U32G U54A U59A G67A,≤ 0.5
10,C5G C31U G41C A43C C60G,≤ 0.5
11,U8A C31U A37G,≤ 0.5
12,C11G C27U G51C C62G,≤ 0.5
13,C4A C5G A36U G63A,≤ 0.5
14,U19C G38A C55U C61G,≤ 0.5
15,U13C A57C C61A,≤ 0.5
16,C5U G12A C29A U59G,≤ 0.5
17,U8G C24G C31U,≤ 0.5
18,C4A C29G A40U,≤ 0.5
19,G6C U8C G38C C46A,≤ 0.5
20,U7G C62G,0.603
21,U16A A57G C60G G67A,≤ 0.5
22,C27G C29U G68C,≤ 0.5
23,U3A C11U U13A G17C G18C A36C A70U,≤ 0.5
24,A15C G38A A57G,≤ 0.5

row,Variant,yeast fitness
1,U7G U32C C61A,≤ 0.5
2,A14U U16A G25A A37G,≤ 0.5
3,C24G A42U,0.559
4,U7G G18A C27G U28G,≤ 0.5
5,C27U C55A A69U,0.549
6,C30A C34A C60U,≤ 0.5
7,A15U U28A U59A C66A,≤ 0.5
8,C11U A65G C66G G68C,≤ 0.5
9,C4U A37U A45G,≤ 0.5
10,A21C A36G C66A,≤ 0.5
11,U7G G18C U53G,≤ 0.5
12,C4U A42U G51C C62U C66U,≤ 0.5
13,U19A A42G U47C,≤ 0.5
14,A21U C30G A45G,≤ 0.5
15,U7G G39C A57G,≤ 0.5
16,C4G C29G A37U,≤ 0.5
17,A14U C30A G67A,≤ 0.5
18,C4G C11G G58C C60A A70C,≤ 0.5
19,A40G G51C G58A,≤ 0.5
20,A20G C22U C29A G68A A69C,≤ 0.5
21,U35G A37U,≤ 0.5
22,A15U U35C G48U C55G,≤ 0.5
23,C5U G17A C34U C55G,≤ 0.5
24,U3A C5A G12C G25A C30U G50A C55G C62A,≤ 0.5

row,Variant,yeast fitness
1,C5A C22U A70G,≤ 0.5
2,C4G U8C U28G C49A C62G G68U,≤ 0.5
3,C11U C29U G39A,0.619
4,C4U C22G U28A A36U A65U,≤ 0.5
5,C27G C29U C49U,≤ 0.5
6,U13A C31G C46G A69C,≤ 0.5
7,G12A U13C C22A U26C A69C,≤ 0.5
8,C4G U26G U28A,≤ 0.5
9,U8A C11U U19C C46A G68U,≤ 0.5
10,A21G A36G A40C A42C,≤ 0.5
11,C11U C55A G58C G67C,≤ 0.5
12,U2A C5A C60U,≤ 0.5
13,U8C C33U G58C,≤ 0.5
14,C11G U19G,0.577
15,C5U U16G A65U C66U,≤ 0.5
16,G10C U54A A69U,≤ 0.5
17,U47C G58C,0.971
18,U2A C11G A21G G56A,≤ 0.5
19,U7G A42G G68A,≤ 0.5
20,U13C A37G G68C,≤ 0.5
21,C5G G10C C29U C61U A69U,≤ 0.5
22,C22G C27G C60U C61A C62G,≤ 0.5
23,A14U U19A C22U,≤ 0.5
24,U26C C29A C66U A69U,≤ 0.5

row,Variant,yeast fitness
1,A14G G44C U47A C49G,≤ 0.5
2,U7A U26C A40G A43U C49A G68C,≤ 0.5
3,G9C C34G G68A,≤ 0.5
4,C4U U47A G67A,0.607
5,U16C C29U C49U C55G,≤ 0.5
6,C4G U13A U54A,≤ 0.5
7,C5U A15G U19A A21U C34U,≤ 0.5
8,U3A A14G G23C G41A C55U U59A A70U,≤ 0.5
9,G9C C34G U47C G48C,≤ 0.5
10,C46U G68A,0.9
11,A36U A43C G44C G48C,≤ 0.5
12,U7C A20G U32A,≤ 0.5
13,A15C C62G C66A A69C,≤ 0.5
14,C4A U16A U32C G56C A69U,≤ 0.5
15,U35C A37C C49A C66U,≤ 0.5
16,G9C C27G C29G A36C,≤ 0.5
17,C5A A21U U32A U54C C55G,≤ 0.5
18,U16C U28G C60U U64C,≤ 0.5
19,C29G U32G G38A A57G,≤ 0.5
20,U35C G50A C55G,≤ 0.5
21,G6A A42G C55G,≤ 0.5
22,C11G C33U G38C U64C,≤ 0.5
23,G18A G41C C61U,≤ 0.5
24,C24U G51C U54A A69U,≤ 0.5

row,Variant,yeast fitness
1,A14U A15G C61U,≤ 0.5
2,U32G G41C C46U A65U,≤ 0.5
3,C11U U26G C46U C60A,≤ 0.5
4,C11U A21C C27G G39C A65C,≤ 0.5
5,C24U C49A U64C,1.04
6,C5G A21G G51A,0.617
7,C4G C11A C24A U28G U47G C49G C55G,≤ 0.5
8,C4A G6A A40G U53G C62G C66U,0.6
9,U2G G18C C30G C34A A37C A65U,≤ 0.5
10,U3C C24G G44A,≤ 0.5
11,C11G A37G G39A G48A C62U,≤ 0.5
12,A15C G18C A70G,≤ 0.5
13,G25A G56A A69C,0.773
14,C30A C31U A36G G50A A65G C66U,≤ 0.5
15,C11A G25C C34G C66U,≤ 0.5
16,G18A C27U U32A G48A G51A,≤ 0.5
17,U8A C55U G68A,0.578
18,G9C C11U C22G,≤ 0.5
19,C5U C29G U53G,≤ 0.5
20,C5G A20U,0.621
21,U2C C27G A42U U53C,≤ 0.5
22,A14C G25A A43U,≤ 0.5
23,C49U U54A G68C,≤ 0.5
24,C5G G10A C11G U16G C33G U53A U59A,≤ 0.5

row,Variant,yeast fitness
1,U7C G18A C22G,0.586
2,A15U G18C C55U,≤ 0.5
3,A15G G39A C62A G67C,≤ 0.5
4,U13C C22A U47C C55G,≤ 0.5
5,G25A G41A G51C C60U,≤ 0.5
6,G6A,0.965
7,C5U C22G C29G C62U,≤ 0.5
8,U7A G9C G17C G48A C62U,≤ 0.5
9,C11U C27G A36G G63C C66U,≤ 0.5
10,U47C U64G G68C,≤ 0.5
11,A37C C55G C66U,≤ 0.5
12,A20G A21U C27U A40G A43G C46U C49U C61G,≤ 0.5
13,A21U U35A A43G G56C C61U,≤ 0.5
14,U3C U19G A21C U32A A37U U53G U64A,≤ 0.5
15,G9A C11A G38C C60G,≤ 0.5
16,A36C G39C G63A A65U,≤ 0.5
17,U7C C33U G38C C46G C61U,≤ 0.5
18,G48A G51A A69U,0.755
19,G10C A21C C27A C34A C49U,≤ 0.5
20,C27U C30U C34A C62A,≤ 0.5
21,U3A G9A C30A A42U C49U U59C A69C,≤ 0.5
22,C34U C49A G52A U59A,≤ 0.5
23,G6C C29G C49A,≤ 0.5
24,G23C C46A G52A G56A C62U,≤ 0.5

row,Variant,yeast fitness
1,C31G U47C,0.952
2,C5U C11U U13C C30U A40G,≤ 0.5
3,G18C U47G G67A A69U,≤ 0.5
4,C30G C31A U32A,≤ 0.5
5,C27U G41C A65C,0.588
6,C33A C46U U59C G68C,≤ 0.5
7,C62U G63C A70C,≤ 0.5
8,U8A U19C C31A U35G A43G U47C G52C G67A,0.575
9,C4U C60G G63A G67A,≤ 0.5
10,C5A C31G G44C G52C,≤ 0.5
11,C11U A42C,0.91
12,G25C C27A C30G A70U,≤ 0.5
13,A21G C30G U64C,≤ 0.5
14,C11G A43U U54G G67U,≤ 0.5
15,C5G C24U U26C G63A A65G,≤ 0.5
16,C4A U8C A15G U35A,≤ 0.5
17,C24U C34U C46A U54C,≤ 0.5
18,A42C A45C G48A,0.958
19,G10C C33A A40U A69C,≤ 0.5
20,C11A G12C G39A G63A,≤ 0.5
21,U7C U47C C60G,≤ 0.5
22,C11U A20U G39A A57U,≤ 0.5
23,G10A G18A A42C C61A C62G A65U,≤ 0.5
